The results in this text go back to patent publication US5240933A, “14-hydroxy-N-(2-methoxyethyl)-7,8-dihydromorphine and -norisomorphine, processes for the preparation thereof and the use thereof as pharmaceutical compositions” (Boehringer Ingelheim GmbH, priority 1991, dated 1993).

For the data set, the system named is opiate receptor. The data set is described as follows: opiate receptor binding test with [^3 H]-naloxon as radioligand. The following applies: Ki with 0.1M sodium chloride vs Ki without. How it is done:
In this test, compound 1a according to the invention has a mean effective dose (MED) of 2.5 mg/kg p.o. (64% effect) and compound 1b according to the invention has an MED of 10 mg/kg p.o. (71% effect). […] This small sodium shift indicates the […] nature of the compounds according to the invention.

Take `COCCN1CC[C@]23c4c5ccc(O)c4O[C@H]2[C@@H](O)CC[C@@]3(O)[C@H]1C5` [compound 1a, 14-hydroxy-N-(2-methoxyethyl)-7,8-dihydronormorphine]: the sodium shift is 1.12.

Turning to `COCCN1CC[C@]23c4c5ccc(O)c4O[C@H]2[C@H](O)CC[C@@]3(O)[C@H]1C5` [compound 1b, 14-hydroxy-N-(2-methoxyethyl)-7,8-dihydronorisomorphine], the sodium shift is 1.11.
